Experimental data as given in patent publication US20210228680A1.
These are yes or no findings as the source states them, for the method shown. For some assays here: Binding seen in cells or lysates may run through a third protein. Some binding calls cover weakened binding; strength is not graded here.

Amino acid sequences for entries named in this document (tags omitted). Residues count along the entry.
UniProt P29351: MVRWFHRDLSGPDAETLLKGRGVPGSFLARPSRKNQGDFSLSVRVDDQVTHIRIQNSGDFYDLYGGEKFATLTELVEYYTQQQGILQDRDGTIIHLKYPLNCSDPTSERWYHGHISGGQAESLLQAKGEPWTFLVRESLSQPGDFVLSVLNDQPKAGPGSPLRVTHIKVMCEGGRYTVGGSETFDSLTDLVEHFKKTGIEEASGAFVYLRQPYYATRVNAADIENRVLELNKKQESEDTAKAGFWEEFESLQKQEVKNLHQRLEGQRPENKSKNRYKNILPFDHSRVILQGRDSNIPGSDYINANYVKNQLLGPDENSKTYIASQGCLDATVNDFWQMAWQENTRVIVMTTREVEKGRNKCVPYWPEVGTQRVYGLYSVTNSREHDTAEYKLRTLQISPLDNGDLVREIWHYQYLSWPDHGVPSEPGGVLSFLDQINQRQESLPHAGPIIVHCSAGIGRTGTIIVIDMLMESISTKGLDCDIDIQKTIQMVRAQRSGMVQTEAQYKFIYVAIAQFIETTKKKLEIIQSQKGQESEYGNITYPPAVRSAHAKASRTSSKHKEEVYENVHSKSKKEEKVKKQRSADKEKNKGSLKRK
UniProt Q96LC7, residues 17-546: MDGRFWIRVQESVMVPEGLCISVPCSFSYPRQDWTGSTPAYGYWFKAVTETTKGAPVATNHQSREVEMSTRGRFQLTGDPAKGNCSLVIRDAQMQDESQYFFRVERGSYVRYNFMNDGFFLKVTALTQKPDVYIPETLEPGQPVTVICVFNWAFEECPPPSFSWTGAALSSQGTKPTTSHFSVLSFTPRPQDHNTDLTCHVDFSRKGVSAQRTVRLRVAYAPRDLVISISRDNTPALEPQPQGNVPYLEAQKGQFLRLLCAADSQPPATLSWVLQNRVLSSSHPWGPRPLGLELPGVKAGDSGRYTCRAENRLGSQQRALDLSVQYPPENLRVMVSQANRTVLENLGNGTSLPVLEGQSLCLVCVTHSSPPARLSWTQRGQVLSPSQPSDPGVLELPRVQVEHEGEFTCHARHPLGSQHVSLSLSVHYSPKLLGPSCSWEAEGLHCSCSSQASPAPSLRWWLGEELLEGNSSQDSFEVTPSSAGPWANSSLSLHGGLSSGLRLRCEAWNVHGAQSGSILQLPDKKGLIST

Key:
[1] = biological target: T1, Siglec G (mouse homologue of human Siglec 10) (mouse) (UniProt Q80ZE3); assay: Co-immunoprecipitation: CD24-/- spleen cells stimulated 30 minutes with 1 µg/ml CD24Fc, control Fc or PBS; Siglec G immunoprecipitated, Western blot with anti-SHP-1
T1 sequence (looked up): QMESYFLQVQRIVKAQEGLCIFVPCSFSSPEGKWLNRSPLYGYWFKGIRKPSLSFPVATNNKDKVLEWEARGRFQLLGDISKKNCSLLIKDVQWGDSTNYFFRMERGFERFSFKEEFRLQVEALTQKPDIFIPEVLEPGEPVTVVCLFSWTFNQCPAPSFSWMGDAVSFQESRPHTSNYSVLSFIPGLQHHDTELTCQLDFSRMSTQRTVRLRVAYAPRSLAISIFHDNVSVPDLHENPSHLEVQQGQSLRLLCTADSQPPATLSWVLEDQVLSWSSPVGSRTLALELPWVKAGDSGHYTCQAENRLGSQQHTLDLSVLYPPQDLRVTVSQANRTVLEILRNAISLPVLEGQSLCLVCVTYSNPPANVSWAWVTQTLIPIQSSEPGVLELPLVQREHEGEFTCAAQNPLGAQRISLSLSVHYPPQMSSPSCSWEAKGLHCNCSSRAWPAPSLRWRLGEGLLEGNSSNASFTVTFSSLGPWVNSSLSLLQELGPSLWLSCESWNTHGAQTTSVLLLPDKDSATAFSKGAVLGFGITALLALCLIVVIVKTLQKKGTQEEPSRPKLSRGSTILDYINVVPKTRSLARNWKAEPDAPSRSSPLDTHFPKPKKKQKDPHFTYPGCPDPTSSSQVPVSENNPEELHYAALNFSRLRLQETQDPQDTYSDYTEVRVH

[2] = biological target: CD24Fc fusion protein (processed, secreted form) (human); assay: Biacore (SPR): CD24Fc immobilised on the chip, Siglec-10Fc injected at different concentrations

Row | Substance | binding [1] | binding [2]
1 | SHP-1 (from UniProt P29351 1-595) (enzyme) | binds | 
2 | Siglec-10Fc (from UniProt Q96LC7 17-546) (Fc fusion) |  | binds
